From the supplement of paper PMC12462457
Where “and” joins values, the source holds several entries; their conditions need not be identical. Equal values may be shown once. Where a name gives a salt, the structure may show the parent alone. ± gives the standard deviation of the averaged measurements. This is one part of the list. Single values are uncertain here, since repeats match poorly.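 Cell counts came from imaging DAPI-stained nuclei, excluding as dead any cells lacking phalloidin-stained cytoplasm. Counts per well were normalized to the median vehicle-well count on that plate, and the values were averaged over two replicate plates.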

System: OVCAR8
Assay: cell count relative to DMSO vehicle (fold change); higher = more surviving senescent cells (less killing)
Details: senescence inducer: cisplatin 10 µM 48 h, then 6 d recovery (CP senescent), exposure time 24 h

SMILES | cell count (compound dose 1 µM) | cell count (compound dose 5 µM)
C/C(=N\NC(=S)N1CCC1)c1ccccn1 | 0.875 ± 0.0028 | 0.984 ± 0.098
O=C1C(=O)N(Cc2ccc(Cl)c(Cl)c2)c2ccccc21 | 1.11 ± 0.16 | 0.93 ± 0.18
COc1cccc(-c2cc(F)c(Nc3ncccc3C(=O)O)c(F)c2)c1 | 1 ± 0.059 | 1.09 ± 0.19
O=C(O)C(Cc1ccccc1[N+](=O)[O-])=NNc1nc(-c2ccc(Cl)c(Cl)c2)cs1 (mixture of isomers) | 1.26 ± 0.08 | 1.18 ± 0.018
O=C(O)CSc1cc(NS(=O)(=O)c2ccc(Br)cc2)c2ccccc2c1O | 1.09 ± 0.037 | 0.764 ± 0.096
N#C[C@H]1[C@H](O)[C@@H](CO)O[C@H]1n1ccc(N)nc1=O [CNDAC (hydrochloride)] | 0.967 ± 0.03 | 0.925 ± 0.054
Nc1ncnc(N[C@@H]2O[C@H](CO)[C@@H](O)[C@H]2O)c1[N+](=O)[O-] [Clitocine] | 0.928 ± 0.1 | 0.931 ± 0.1
N[C@@H](CCC(=O)O)C(=O)O [L-Glutamic acid] | 1.19 ± 0.22 | 1.115 ± 0.011
COc1cc2c(cc1O)CC[C@@H]1[C@@H]2CC[C@]2(C)[C@@H](O)CC[C@@H]12 [2-Methoxyestradiol] | 1.08 ± 0.25 | 0.866 ± 0.031
O=c1[nH]c(=O)n([C@@H]2O[C@H](CO)[C@@H](O)[C@H]2O)cc1F [5-Fluorouridine] | 0.751 ± 0.1 | 0.618 ± 0.21
NC(=O)c1ccc2nc(-c3ccc(Oc4ccc(Cl)cc4)cc3)[nH]c2c1 | 0.987 ± 0.14 | 1.24 ± 0.073
Cc1cnc(Nc2ccc(N3CCN(C)CC3)cc2)nc1Nc1cccc(S(=O)(=O)NC(C)(C)C)c1 | 0.857 ± 0.24 | 0.293 ± 0.24
OCC1(O)COc2cc(O)ccc2-c2cc(O)c(O)cc2C1 (configuration not stated) [Protosappanin B] | 0.911 ± 0.1 | 0.931 ± 0.21
CC[C@@]1(O)C(=O)OCc2c1cc1n(c2=O)Cc2cc3cc(O)ccc3nc2-1 [(S)-10-Hydroxycamptothecin] | 0.598 ± 0.039 | 0.701 ± 0.11
COc1ccc(-c2oc3c(CC=C(C)C)c(O)cc(O)c3c(=O)c2O[C@@H]2O[C@@H](C)[C@H](O)[C@@H](O)[C@H]2O)cc1 [Baohuoside I] | 1.12 ± 0.13 | 1.04 ± 0.017
CN1CCN(CCCNc2ncc(Cl)c(-c3cc4c(C(=O)NC5CC5)cccc4s3)n2)CC1 | 1.18 ± 0.086 | 1.09 ± 0.084
CC(C)=CCC[C@@H](C(=O)O)[C@H]1CC[C@@]2(C)C3=CC[C@H]4C(C)(C)[C@@H](O)CC[C@]4(C)C3=CC[C@]12C [3-Dehydrotrametenolic acid] | 1.12 ± 0.032 | 1.09 ± 0.076
NC1(c2ccc(-c3nc4ccn5c(=O)[nH]nc5c4cc3-c3ccccc3)cc2)CCC1 [MK-2206 (dihydrochloride)] | 0.83 ± 0.068 | 0.564 ± 0.29
C[C@@H]1O[C@@H](Oc2c(-c3ccc(O)c(O)c3)oc3cc(O)cc(O)c3c2=O)[C@H](O)[C@H](O)[C@H]1O [Quercitrin] | 1.093 ± 0.0028 | 0.809 ± 0.13
Cc1nn(C)c2nc(NNC(=O)Nc3cc(Cl)nc(Cl)c3)cc(C(C)C)c12 | 1.15 ± 0.23 | 0.711 ± 0.17
CC1(C)OC(=O)C=C[C@]2(C)[C@H]3CC[C@@]4(C)[C@H](c5ccoc5)OC(=O)[C@H]5O[C@]54[C@]3(C)C(=O)C[C@@H]12 [Obacunone] | 0.955 ± 0.22 | 0.962 ± 0.33

SMILES | cell count (compound dose 1 µM) | cell count (compound dose 5 µM)
C[C@@H]1CC[C@@]2(NC1)O[C@H]1C[C@H]3[C@@H]4CC=C5C[C@@H](O[C@@H]6O[C@H](CO)[C@@H](O[C@@H]7O[C@@H](C)[C@H](O)[C@@H](O)[C@H]7O)[C@H](O)[C@H]6O[C@@H]6O[C@@H](C)[C@H](O)[C@@H](O)[C@H]6O)CC[C@]5(C)[C@H]4CC[C@]3(C)[C@H]1[C@@H]2C [Solamargine] | 1.06 ± 0.072 | 0.026 ± 0.02
O=C(O)Cc1ccccc1Nc1c(Cl)cccc1Cl [Diclofenac (potassium)] | 0.9575 ± 0.0092 | 1.11 ± 0.063
O=C(O)Cc1ccccc1Nc1c(Cl)cccc1Cl | 0.777 ± 0.076 | 0.629 ± 0.081
O=C(O)Cc1ccccc1Nc1c(Cl)cccc1Cl [Diclofenac] | 1.01 ± 0.073 | 0.918 ± 0.036
CNC(=O)c1ccccc1Oc1nc(Nc2cc(OC)c(OC)c(OC)c2)ncc1Br | 0.741 ± 0.18 | 0.736 ± 0.24
O=c1[nH]cc(F)c(=O)[nH]1 [5-Fluorouracil] | 1.19 ± 0.12 | 1.05 ± 0.26
O=C(O)c1cc(=O)c2cccc(O)c2[nH]1 | 1.177 ± 0.0092 | 0.75 ± 0.14
COc1cc2c(cc1OC)-c1cc3ccc(OC)c(OC)c3c[n+]1CC2 | 0.845 and 1.19 | 0.644 and 1.15
Cc1cc(-c2nc(-c3ccc(OC(F)(F)F)cc3)no2)nn1Cc1ccnc(N2CCN(C3CC3)CC2)c1 | 1.04 ± 0.15 | 0.967 ± 0.019
CSc1cccc(Nc2ncc3cc(-c4c(Cl)cccc4Cl)c(=O)n(C)c3n2)c1 | 0.403 ± 0.028 | 0.193 ± 0.029
Cc1cc(N2CCOCC2)ccc1Nc1nc(NC2CCCCC2)c2[nH]cnc2n1 | 1.544 ± 0.0064 | 1.38 ± 0.36
Cc1c(-c2ccc(N3CCc4cccc(C(=O)Nc5nc6ccccc6s5)c4C3)nc2C(=O)O)cnn1CC12CC3CC(CC(C3)C1)C2 | 1 ± 0.029 | 0.969 ± 0.036
O=c1c(-c2ccc(O)cc2)coc2cc(O)cc(O)c12 | 1.24 ± 0.13 | 1.17 ± 0.15
CCn1cc(-c2ccnc3[nH]c(-c4cccc(CN(C)C)c4)cc23)c(-c2ccc(NC(=O)N(C)C)cc2)n1 | 1.34 ± 0.069 | 1.11 ± 0.051
Cc1nc(Nc2n[nH]c3c2CN(C(=O)N[C@H](CN(C)C)c2ccccc2)C3(C)C)c2sccc2n1 | 0.726 ± 0.17 | 0.413 ± 0.0028
O=C(O[C@@H]1Cc2c(O)cc(O)cc2O[C@@H]1c1cc(O)c(O)c(O)c1)c1cc(O)c(O)c(O)c1 [(-)-Epigallocatechin Gallate] | 1.26 ± 0.068 | 0.8235 ± 0.0078
CCCCCCC/C=C/C(=O)CCc1ccc(O)c(OC)c1 [[8]-Shogaol] | 1.05 ± 0.15 | 0.927 ± 0.14
C[C@@H]1O[C@@H](O[C@@H]2[C@@H](O)[C@H](OCCc3ccc(O)c(O)c3)O[C@H](CO)[C@H]2OC(=O)/C=C/c2ccc(O)c(O)c2)[C@H](O)[C@H](O)[C@H]1O [Verbascoside] | 1.16 | 0.767 ± 0.022
Oc1ccc(Nc2nc(-c3ccc(Cl)cc3)cs2)cc1 | 1.08 ± 0.026 | 0.886 ± 0.58
O=C1O[C@H]2[C@@H]3OC(=O)c4cc(O)c(O)c(O)c4-c4c(cc(O)c(O)c4O)C(=O)OC[C@H]2O[C@@H](OC(=O)c2cc(O)c(O)c(O)c2)[C@@H]3OC(=O)c2cc(O)c(O)c3c2[C@@H]2C1=CC(=O)[C@](O)(O3)C2(O)O [Geraniin] | 1.14 ± 0.032 | 0.881 ± 0.16

3 neighbouring entries from above:
SMILES | cell count (compound dose 1 µM) | cell count (compound dose 5 µM)
Cc1c(-c2ccc(N3CCc4cccc(C(=O)Nc5nc6ccccc6s5)c4C3)nc2C(=O)O)cnn1CC12CC3CC(CC(C3)C1)C2 | 1 ± 0.029 | 0.969 ± 0.036
O=c1c(-c2ccc(O)cc2)coc2cc(O)cc(O)c12 | 1.24 ± 0.13 | 1.17 ± 0.15
CCn1cc(-c2ccnc3[nH]c(-c4cccc(CN(C)C)c4)cc23)c(-c2ccc(NC(=O)N(C)C)cc2)n1 | 1.34 ± 0.069 | 1.11 ± 0.051
